The source of these data is article PMC7034062.

These are yes or no findings as the source states them, for the method shown. Binding seen in cells or lysates may run through a third protein. A yes stands for co-enrichment or nearness to the bait. Other partners may have been found.

In this assay the target is T1, TAP-Sen1 (2-931) (S. cerevisiae) (UniProt Q00416).
T1 sequence: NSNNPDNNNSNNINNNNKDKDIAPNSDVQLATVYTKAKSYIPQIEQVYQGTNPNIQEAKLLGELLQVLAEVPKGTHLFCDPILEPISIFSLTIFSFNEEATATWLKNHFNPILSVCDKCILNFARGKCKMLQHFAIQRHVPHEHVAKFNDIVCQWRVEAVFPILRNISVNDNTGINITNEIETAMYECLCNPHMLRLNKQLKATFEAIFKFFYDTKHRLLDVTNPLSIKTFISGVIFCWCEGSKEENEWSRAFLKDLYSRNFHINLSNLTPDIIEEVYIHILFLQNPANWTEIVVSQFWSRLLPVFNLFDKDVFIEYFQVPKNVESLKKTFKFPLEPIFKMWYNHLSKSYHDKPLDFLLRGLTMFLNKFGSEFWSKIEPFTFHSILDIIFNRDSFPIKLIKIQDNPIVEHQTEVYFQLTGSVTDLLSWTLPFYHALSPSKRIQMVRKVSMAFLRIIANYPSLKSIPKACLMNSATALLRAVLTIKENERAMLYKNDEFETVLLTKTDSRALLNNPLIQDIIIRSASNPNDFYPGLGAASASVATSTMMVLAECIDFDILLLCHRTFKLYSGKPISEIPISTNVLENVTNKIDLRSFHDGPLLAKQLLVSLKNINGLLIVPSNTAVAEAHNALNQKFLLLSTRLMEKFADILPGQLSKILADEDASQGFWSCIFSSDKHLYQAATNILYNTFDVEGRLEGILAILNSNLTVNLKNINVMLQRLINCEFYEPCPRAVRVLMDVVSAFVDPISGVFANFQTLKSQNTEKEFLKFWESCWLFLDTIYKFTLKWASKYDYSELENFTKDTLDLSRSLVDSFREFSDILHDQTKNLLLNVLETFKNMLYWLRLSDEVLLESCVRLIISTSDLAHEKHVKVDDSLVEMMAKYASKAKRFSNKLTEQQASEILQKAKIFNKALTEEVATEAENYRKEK
The assay is described as follows: affinity purification with mass spectrometry; TAP-Sen1 (2-931) on TAP-beads, released with AcTEV protease (24°C, 2 h), CBP-Sen1 (2-931) bound to calmodulin beads (4°C, 2 h); cells in G1 and in S phase; four biological replicates pooled.

B1: Ctf4 (protein, UniProt Q01454 1-927)
chain: MVSVIDKLVFDFGGKTLVSLAPDNNTLCVANKNGLTKILKTNNPEEEPETLDSSKLVSSIKCYSNSHFLMTTMQGDALRYNIDSSQEELLARFALPLRDCCVIHSGKMAVFGGDDLELILLELDDETHKKHAIKIDEQVSQISYNSQMNILAVSMINGKVQIFSLTSTIPNKVHELNDYIVANSYDDTHRDKILSNMMDDIDKDNDNDLSETADPDENNVADPEFCAANRICTRVAWHPKGLHFALPCADDTVKIFSIKGYSLQKTLSTNLSSTKAHFIDLQFDPLRGTYIAAVDLNNKLTVWNWETSEIHYTREFKRKITNIAWKIQADSKTLDLVLGTWSGSIAIVQNLAESVVSNIPDQSVAESSTKHGLFVDSESDLENLEGNDDINKSDKLFSDITQEANAEDVFTQTHDGPSGLSEKRKYNFEDEEDFIDDDDGAGYISGKKPHNEHSYSRVHKTHSFPISLANTGKFRYMPFSPAGTPFGFTDRRYLTMNEVGYVSTVKNSEQYSITVSFFDVGRFREYHFEDLFGYDLCFLNEKGTLFGQSKTGQIQYRPHDSIHSNWTKIIPLQAGERITSVAATPVRVIVGTSLGYFRSFNQFGVPFAVEKTSPIVALTAQNYRVFSVHYSQFHGLSYSLSELGTSSKRYYKRECPLPMSLPNINSDMKKDANLDYYNFNPMGIKSLFFSSYGDPCIFGSDNTLLLLSKWRSPEESKWLPILDSNMEIWKMSGGKETTDIHVWPLALAYDTLNCILVKGKHIWPEFPLPLPSEMEIRMPVFVKSKLLEENKAILNKKNEIGADTEAEEGEEDKEIQIPVSMAAEEEYLRSKVLSELLTDTLENDGEMYGNENEVLAALNGAYDKALLRLFASACSDQNVEKALSLAHELKQDRALTAAVKISERAELPSLVKKINNIREARYEQQLK
With B1, the binding entry is recorded as “binds”.
